## Percent effect of library compounds

By UniProt entry, the sequences of proteins in these tests, tags left out.
UniProt P9WPC5, whole entry: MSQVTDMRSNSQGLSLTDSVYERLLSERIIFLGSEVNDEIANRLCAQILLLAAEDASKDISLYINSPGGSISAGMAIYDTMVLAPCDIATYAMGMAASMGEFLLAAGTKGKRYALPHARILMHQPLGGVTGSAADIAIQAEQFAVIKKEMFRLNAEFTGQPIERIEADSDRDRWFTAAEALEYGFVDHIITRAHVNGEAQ
UniProt P9WPC3, whole entry partner: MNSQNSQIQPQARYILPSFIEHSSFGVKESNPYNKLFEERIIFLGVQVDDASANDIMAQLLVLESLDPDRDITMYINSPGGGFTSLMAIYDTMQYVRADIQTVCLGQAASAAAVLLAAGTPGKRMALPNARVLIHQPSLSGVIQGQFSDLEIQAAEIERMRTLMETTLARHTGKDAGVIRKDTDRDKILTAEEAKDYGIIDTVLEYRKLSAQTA
UniProt I6X8D2, whole entry: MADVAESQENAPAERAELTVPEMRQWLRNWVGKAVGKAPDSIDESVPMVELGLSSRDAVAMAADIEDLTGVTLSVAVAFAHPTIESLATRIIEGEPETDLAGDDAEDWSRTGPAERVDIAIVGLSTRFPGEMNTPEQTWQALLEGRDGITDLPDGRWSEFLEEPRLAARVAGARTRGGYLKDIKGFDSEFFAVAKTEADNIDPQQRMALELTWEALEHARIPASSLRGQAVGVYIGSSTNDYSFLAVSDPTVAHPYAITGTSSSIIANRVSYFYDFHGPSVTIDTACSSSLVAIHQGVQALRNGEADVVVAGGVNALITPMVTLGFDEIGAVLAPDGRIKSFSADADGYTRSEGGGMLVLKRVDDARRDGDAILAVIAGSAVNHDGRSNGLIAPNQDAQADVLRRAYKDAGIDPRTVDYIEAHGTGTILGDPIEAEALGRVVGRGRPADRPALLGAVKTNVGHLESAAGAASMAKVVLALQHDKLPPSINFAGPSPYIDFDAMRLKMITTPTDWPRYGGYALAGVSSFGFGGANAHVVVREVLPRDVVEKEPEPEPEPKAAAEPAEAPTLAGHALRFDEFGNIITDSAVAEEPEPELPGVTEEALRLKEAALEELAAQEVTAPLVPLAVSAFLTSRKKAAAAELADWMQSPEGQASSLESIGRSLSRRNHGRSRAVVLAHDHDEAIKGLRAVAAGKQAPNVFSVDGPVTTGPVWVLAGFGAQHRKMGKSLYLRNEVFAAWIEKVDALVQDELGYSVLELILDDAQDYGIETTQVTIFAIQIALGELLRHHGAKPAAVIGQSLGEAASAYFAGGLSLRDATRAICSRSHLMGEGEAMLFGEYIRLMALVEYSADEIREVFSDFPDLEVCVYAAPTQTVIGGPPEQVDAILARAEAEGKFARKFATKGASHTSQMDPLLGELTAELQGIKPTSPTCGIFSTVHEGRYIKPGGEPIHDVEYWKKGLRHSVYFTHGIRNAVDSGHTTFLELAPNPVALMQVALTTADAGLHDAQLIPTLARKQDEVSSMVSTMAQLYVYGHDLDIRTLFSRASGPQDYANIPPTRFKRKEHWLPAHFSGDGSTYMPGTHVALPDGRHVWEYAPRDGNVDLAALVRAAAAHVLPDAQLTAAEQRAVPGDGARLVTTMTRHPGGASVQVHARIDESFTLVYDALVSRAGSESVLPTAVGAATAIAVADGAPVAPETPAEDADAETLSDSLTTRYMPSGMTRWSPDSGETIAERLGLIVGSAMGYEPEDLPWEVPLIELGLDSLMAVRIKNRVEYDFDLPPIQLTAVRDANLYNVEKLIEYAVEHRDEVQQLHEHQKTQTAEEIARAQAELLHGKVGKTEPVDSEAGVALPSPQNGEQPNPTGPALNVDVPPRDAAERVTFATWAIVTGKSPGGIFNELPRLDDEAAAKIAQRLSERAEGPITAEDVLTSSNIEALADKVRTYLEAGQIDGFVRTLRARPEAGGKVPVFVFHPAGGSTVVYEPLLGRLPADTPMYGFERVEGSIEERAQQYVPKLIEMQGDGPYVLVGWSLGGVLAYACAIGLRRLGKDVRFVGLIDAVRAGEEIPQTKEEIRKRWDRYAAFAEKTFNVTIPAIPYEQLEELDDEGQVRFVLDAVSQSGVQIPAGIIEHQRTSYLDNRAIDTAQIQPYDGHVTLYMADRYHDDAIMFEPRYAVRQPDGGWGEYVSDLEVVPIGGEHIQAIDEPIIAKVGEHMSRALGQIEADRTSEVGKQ

Values are the deposited “Percent Effect”, in %. How 0% and 100% were set is not recorded. Most values in the screen are low, and negative values occur. The compounds are a random part of those screened. Two or more numbers in one place are separate tests of the same structure; such repeats can differ widely.

Leishmania in macrophages: 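Cell assay of Leishmania donovani living inside macrophages; the read-out is not stated. Tested at 30 µM. Direction is inferred from retests: higher values go with stronger inhibition. Size under these conditions: about 69,000 compounds, about 1,000 of them at 50% or above in at least one test.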
Toxoplasma: 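Assay of Toxoplasma gondii numbers, read through their beta-galactosidase reporter with a colour substrate. Compounds at 10 µM. Higher reads as fewer parasites (inferred from which compounds were picked for retests). Size under these conditions: about 67,000 compounds, about 260 of them at 50% or above in at least one test.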
ClpP1P2: 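ClpP1P2, Mycobacterium tuberculosis (UniProt P9WPC5 and UniProt P9WPC3). Protease assay of ClpP1P2, read by the AMC dye that it sets free. Tested at 50 µM. Higher reads as stronger inhibition, judged from the few compounds that gave an IC50. Most other retested compounds had strongly negative values. About 69,000 compounds were tested under these conditions; 0.015% (about 10) showed 50% or more at least once.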
T. brucei: 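Whole-parasite assay of Trypanosoma brucei over 72 hours; the read-out is not stated. Tested at 30 µM. The record gives no direction; compounds that gave an IC50 in retests scored well above the rest, so higher reads as stronger inhibition. Values scatter widely below zero; nearly all retest evidence comes from the higher of the two concentrations used. About 64,000 compounds were tested under these conditions; 1.5% (about 940) showed 50% or more at least once.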
Pks13 thioesterase: 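Polyketide synthase Pks13, Mycobacterium tuberculosis (UniProt I6X8D2). Enzyme assay of the thioesterase domain of polyketide synthase 13; the read-out is not stated. Tested at 30 µM. The record gives no direction; the compounds picked for IC50 retests had high values, so higher reads as stronger inhibition. Of about 67,000 compounds tested this way, about 300 (0.46%) reached 50% or more in at least one test.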

Cc1cc(C(=O)N2CCCC2)ccc1NS(C)(=O)=O gave Leishmania in macrophages: 1.097%; Toxoplasma: 9.246%; ClpP1P2: -4.164%; T. brucei: -17.11%; Pks13 thioesterase: -5.141%. For O=C(c1ccc(=O)[nH]n1)N1CCCC1C1CCCC1 (stereo not drawn) the result was Leishmania in macrophages: 10.94%; Toxoplasma: -6.492%; ClpP1P2: -1.847%; T. brucei: -9.584%; Pks13 thioesterase: -9.443%. O=C(NCCNc1ncccn1)C1CC(=O)N(Cc2ccccc2)C1 (stereo not drawn) read Leishmania in macrophages: 42.79%; Toxoplasma: 14.32%; ClpP1P2: -25.36%; T. brucei: -19.83%; Pks13 thioesterase: 15%. Result for CCCc1nc(CN(CCO)Cc2cc(Br)ccc2F)no1 was Leishmania in macrophages: -5.286%; Toxoplasma: 9.919%; ClpP1P2: -21.99%; Pks13 thioesterase: -9.575%.

With CC(C)CC(=O)N1CC(=O)c2sc(Nc3ccc(F)cc3)nc2C1 the screen gave Leishmania in macrophages: 0.4704% & -5.482%; Toxoplasma: 19.17%; ClpP1P2: -9.608%; T. brucei: -26.14%; Pks13 thioesterase: 13.49%. COCCC(=O)N1CCCC(c2n[nH]cc2C)C1 (stereo not drawn) gave Leishmania in macrophages: -27.53%; Toxoplasma: -1.761%; ClpP1P2: -3.621%; T. brucei: -18.25%; Pks13 thioesterase: -2.801%. CN(C)C(=O)CN1C[C@@H]2OCCN(c3ncc(F)cn3)[C@@H]2C1 read ClpP1P2: -5.096%; Pks13 thioesterase: -22.57%. With O=C(O)C(F)(F)F.[H][C@@]12CCN(C3CCOC3)[C@]1([H])CCC(=O)N2Cc1csc(C)n1 (stereo partly drawn) the screen gave Leishmania in macrophages: -26.48%; Toxoplasma: -25.82%; T. brucei: -25.64%.

Cc1cccc(OCC(O)CN2CCC(c3ccn[nH]3)CC2)c1 (stereo not drawn) read Leishmania in macrophages: 29.66%; Toxoplasma: 2.991%; ClpP1P2: -15.68%; Pks13 thioesterase: -7.336%. COc1ccc(C(=O)C2CCCN(Cc3ccc(C)o3)C2)c(OC)c1 (stereo not drawn) gave Leishmania in macrophages: -53.8%; Toxoplasma: -2.512%; ClpP1P2: -21.47%; T. brucei: 9.093%; Pks13 thioesterase: -8.271%. With COCCSc1ccc(-n2cccn2)nn1 the screen gave Leishmania in macrophages: -45.98%; Toxoplasma: -10.46%; ClpP1P2: 2.854%; T. brucei: -15.19%; Pks13 thioesterase: -35.34%. With Cc1cc(CNc2cccc(Cl)c2C)no1 the screen gave Leishmania in macrophages: 23.08%; Toxoplasma: -13.22%; ClpP1P2: 17.38%; T. brucei: 11.79%; Pks13 thioesterase: -8.726%.

Cc1ccc(F)c(N2CCCC(NS(=O)(=O)CCCF)C2=O)c1 (stereo not drawn) read Leishmania in macrophages: -3.39%; Toxoplasma: 0.05359%; ClpP1P2: -6.002%; T. brucei: -26.43%; Pks13 thioesterase: 0.9078%. Result for Cn1nc(-c2ccccc2)c(Br)c1C(=O)O was Leishmania in macrophages: 10%; Toxoplasma: 7.257%; ClpP1P2: -6.14%; T. brucei: -36.03%; Pks13 thioesterase: -22.05%. With C[C@@H]1CN(C(=O)C2(Cn3cccn3)CC2)CC[C@@]1(O)C1CC1 the screen gave Leishmania in macrophages: 2.707%; Toxoplasma: -9.423%; ClpP1P2: -10.2%; T. brucei: 19.47%; Pks13 thioesterase: 31.05%. CNC(=O)C1(CCCc2ccncc2)CCN1 (stereo not drawn) read ClpP1P2: 4.613%; Pks13 thioesterase: -2.538%.

With CC(C)n1ccnc1CNC(=O)c1cccc(CCC(C)(C)O)c1 the screen gave Leishmania in macrophages: 9.667%; Toxoplasma: -42.09%; ClpP1P2: -7.642%; T. brucei: -50.69%; Pks13 thioesterase: -14.36%. CN(C)C(CNC(=O)NCCOc1ccccc1)c1ccco1 (stereo not drawn) gave Leishmania in macrophages: -16.44% & 16.29%; Toxoplasma: -1.539%; ClpP1P2: -12.17%; T. brucei: 3.929%; Pks13 thioesterase: -19.16%. For CC(CO)(NCc1noc(Cc2ccccc2)n1)C1CCCCC1 (stereo not drawn) the result was Leishmania in macrophages: 28.42%; Toxoplasma: 4.332%; ClpP1P2: 11.1%; T. brucei: -26.73%; Pks13 thioesterase: 11.76%. With CN(C)S(=O)(=O)N1CCC[C@]2(C[C@@H](Oc3ncccc3F)CO2)C1.O=C(O)C(F)(F)F the screen gave Leishmania in macrophages: 28.83%; Toxoplasma: 5.529%; T. brucei: 14.77%.

For [H][C@@]12CCCO[C@]1([H])[C@@H](NC(=O)c1cnn(C)c1)CN2S(C)(=O)=O the result was Leishmania in macrophages: 2.208%; Toxoplasma: 4.338%; T. brucei: -9.906%. O=C(O)C(F)(F)F.O=C(c1ccccc1)N1CCC[C@]2(C[C@@H](OCc3ccncc3)CO2)C1 gave Leishmania in macrophages: 11.51%; Toxoplasma: 2.956%; T. brucei: 6.596%.

3 of the entries, repeated:

{"compound": "CN(C)C(=O)CN1C[C@@H]2OCCN(c3ncc(F)cn3)[C@@H]2C1", "ClpP1P2": -5.096, "Pks13 thioesterase": -22.57}
{"compound": "O=C(NCCNc1ncccn1)C1CC(=O)N(Cc2ccccc2)C1", "stereo": "stereo not drawn", "Leishmania in macrophages": 42.79, "Toxoplasma": 14.32, "ClpP1P2": -25.36, "T. brucei": -19.83, "Pks13 thioesterase": 15}
{"compound": "CN(C)S(=O)(=O)N1CCC[C@]2(C[C@@H](Oc3ncccc3F)CO2)C1.O=C(O)C(F)(F)F", "Leishmania in macrophages": 28.83, "Toxoplasma": 5.529, "T. brucei": 14.77}

From ChEMBL document CHEMBL3988442, “University of Dundee, Small-Polar-MMV Screening Library” (2021).